Some of the results follow.

The experiment has as its target T1, OsSMF1 (Oryza sativa, UniProt Q6ZLB0 1-436).
T1 sequence: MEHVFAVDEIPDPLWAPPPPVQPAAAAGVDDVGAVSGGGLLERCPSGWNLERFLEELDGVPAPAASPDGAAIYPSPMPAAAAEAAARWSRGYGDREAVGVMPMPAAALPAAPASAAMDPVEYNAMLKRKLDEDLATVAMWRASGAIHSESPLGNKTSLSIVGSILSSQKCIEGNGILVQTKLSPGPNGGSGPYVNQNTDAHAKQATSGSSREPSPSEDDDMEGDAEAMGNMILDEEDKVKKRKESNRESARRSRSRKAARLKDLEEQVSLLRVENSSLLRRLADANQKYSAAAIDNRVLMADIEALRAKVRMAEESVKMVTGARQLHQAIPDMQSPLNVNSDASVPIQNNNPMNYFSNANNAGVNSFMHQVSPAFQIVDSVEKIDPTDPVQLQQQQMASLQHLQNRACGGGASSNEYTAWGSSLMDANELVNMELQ
Put plainly: protein-binding microarray (RPBM); PBS, 2% BSA, 51.3 ng/ul salmon testes DNA, 50 uM zinc acetate, 200 nM TF, 25 C, 1 h; high values mean tight binding. The note with it: protein: recombinant; tags: N-terminal polyhistidine and DsRed monomer fusion (pET32a); chain copies: 2; label: CyDye5-dUTP incorporated in the synthesized complementary strand; 3' TTTTT single-stranded linker to array surface; dsDNA, one strand shown. Put shortly: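 A custom Agilent array was converted to double-stranded form by primer extension with Cy5-dUTP and blocked with 2% BSA. Protein at 200 nM in PBS with 2% BSA, salmon testes DNA and 50 µM zinc acetate was applied for 1 h at 25 °C, followed by washing. The proteins were polyhistidine–DsRed N-terminal fusions of transcription factors, expressed in E. coli BL21-CodonPlus and Ni–NTA-purified. The binding signal is per-feature fluorescence intensity (arbitrary units) from an Axon 4000B scanner.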
Take “TTCTAGCTTTTCTGTCACATGTCACATCGTTCCAATTTCACGGAGTCACCTAGTGCAG”: the binding signal was 5280 fluorescence intensity (a.u.). As for “ATATTTTGAATCTGTAACTTAGAATACGTGTTCTGATGCCCGGAGTCACCTAGTGCAG”, the binding signal is 4660 fluorescence intensity (a.u.). For the sequence “CTACAGAACACCTAGACCTTGCCGCCGTCACCACTAGATCCGGAGTCACCTAGTGCAG”, the binding signal was 5850 fluorescence intensity (a.u.). The result for “ACGCCGCTCGCGCCCGCGGAGGGGAGGGGAGGGGAAGATCCGGAGTCACCTAGTGCAG” reads 4510 fluorescence intensity (a.u.). In the case of “CCCGAGCGCCACGCCGGACGCCATGAGCAGGGTCGGCGACCGGAGTCACCTAGTGCAG”, the binding signal is 3620 fluorescence intensity (a.u.). The same measure for “TATAAACACCAATACACACACGTGGTGACGTCAGATATTACGGAGTCACCTAGTGCAG”: 6650 fluorescence intensity (a.u.); for “TAAATTTCAAATTCGTGCCACATAGGTCCTTTTCCTCACACGGAGTCACCTAGTGCAG”: 4670 fluorescence intensity (a.u.); for “CGCTCTTGGCCGTTGGGAGCCACGTCAGCCGGCGGCCTCCCGGAGTCACCTAGTGCAG”: 18900 fluorescence intensity (a.u.).

Consider “ACCGGGTTCCACATGTCATACACACATTACGTCTTGGAGTCGGAGTCACCTAGTGCAG”, for which the binding signal is 4450 fluorescence intensity (a.u.). The result for “GGGTGGGAGGGAGGGAGTACATGGTAAGGCCATTCAACAGCGGAGTCACCTAGTGCAG” reads 4870 fluorescence intensity (a.u.); that for “AGAGATGCGTGTGTAGGCGGCGGGGAGGGGAGGGCTGTGACGGAGTCACCTAGTGCAG”, 5530 fluorescence intensity (a.u.).

For “CCGACCTGACCTGCGCCGTCTGCGGCATCACGTCGACCGGCGGAGTCACCTAGTGCAG”, the binding signal was 3400 fluorescence intensity (a.u.).

In the case of “ACAGTAGCTGTGGATTGAATGGCAGACCCAACTTTAATTGCGGAGTCACCTAGTGCAG”, the binding signal was 4680 fluorescence intensity (a.u.).

As for “TTTATCATTTCTGTCCACAAACACATCATGAGTTTCTACACGGAGTCACCTAGTGCAG”, the binding signal was 3520 fluorescence intensity (a.u.).

Consider “TCGGCATGGGCGGTGGCGCTGGCGCGTCCTCCGATCCCGTCGGAGTCACCTAGTGCAG”, for which the binding signal is 19900 fluorescence intensity (a.u.). The result for “GAAACCAATCACGCGTCGTTACGTGTCTTCGTAGGAACGACGGAGTCACCTAGTGCAG” reads 3860 fluorescence intensity (a.u.).

As for “CTTAATCCTCTCTTCCTTCCATCCAAACTTGCCACCTATGCGGAGTCACCTAGTGCAG”, the binding signal was 4430 fluorescence intensity (a.u.).

On to “ACCCAATGGTTCCCGCTGCCGCGTGCAGGCGATGCGCTTCCGGAGTCACCTAGTGCAG”, for which the binding signal is 3240 fluorescence intensity (a.u.). As for “CCGCCAACCCACGCTCTATCCACTCACACACACTCTCCTCCGGAGTCACCTAGTGCAG”, the binding signal is 3260 fluorescence intensity (a.u.). “TTTGCCTATGTGGGTTTGAAATTTCTCATCAAATTGGTTCCGGAGTCACCTAGTGCAG”: the binding signal was 3260 fluorescence intensity (a.u.). The same measure for “AGCACGGCCGCGGCCACATTGCCCACTGCCTCGGCGGCGCCGGAGTCACCTAGTGCAG”: 3760 fluorescence intensity (a.u.); for “CCTCATGACCTACCGCCATCACTCGAGTCATTTAGCTTCTCGGAGTCACCTAGTGCAG”: 4050 fluorescence intensity (a.u.); for “AATCTCATCTCATCAATGGTGTCGCTATTACAGCACGTGGCGGAGTCACCTAGTGCAG”: 3740 fluorescence intensity (a.u.). For “AAAGAAAATGTTGACTGGATTGACACGCGTACGCTATGTACGGAGTCACCTAGTGCAG”, the binding signal is 6810 fluorescence intensity (a.u.). In the case of “GAACATGGCGTTGAGCAGGATGTTGCCGCAGACCTTGACGCGGAGTCACCTAGTGCAG”, the binding signal is 3160 fluorescence intensity (a.u.). The same measure for “CAGAAAGCACCACGTCACCGTCGTCTACAGAGCTGCATCGCGGAGTCACCTAGTGCAG”: 19100 fluorescence intensity (a.u.); for “TCGTGAGCAAGCGGAGTCCGAGTCCGAGTCTGACGCTTGTCGGAGTCACCTAGTGCAG”: 3220 fluorescence intensity (a.u.). The same measure for “TCCTACGTAGCGGCTGAGTCAACGTAGGACCCATGTGGACCGGAGTCACCTAGTGCAG”: 5980 fluorescence intensity (a.u.).

Regarding “AGGAGCAGGTACATTGTGTGGCTATATAAGCGAGGTGGCTCGGAGTCACCTAGTGCAG”, the binding signal was 3160 fluorescence intensity (a.u.). For the sequence “GGTCTTATCCCACGTAGCAAGTTGATTTGGTCATCATCCACGGAGTCACCTAGTGCAG”, the binding signal was 6110 fluorescence intensity (a.u.).

“TTGTGTTTTAGACAATTGGTCATGTACTCATGTTTATCAGCGGAGTCACCTAGTGCAG”: the binding signal was 3270 fluorescence intensity (a.u.).

As to “GACGATCGTGACAACAGCTCGTGAGTCATTGGAACCTTCCCGGAGTCACCTAGTGCAG”, the binding signal was 5230 fluorescence intensity (a.u.). The result for “AACATGAACGCCACCGACACGGAAGCATGTCCTGTACCATCGGAGTCACCTAGTGCAG” reads 4050 fluorescence intensity (a.u.); that for “GAAAACCAACTCAATAGACATATATCAGTCGACCCCTCTCCGGAGTCACCTAGTGCAG”, 22200 fluorescence intensity (a.u.). With “TGGGGTATGTGTGCTTGGTTATGTGTGCATCTTAGTTATACGGAGTCACCTAGTGCAG”, the binding signal was 3860 fluorescence intensity (a.u.). The result for “AATTTGTGTACTACTCGTGATCGATCCATTTGGCCATTAACGGAGTCACCTAGTGCAG” reads 11700 fluorescence intensity (a.u.); that for “ATACGCCGACGGATACGGATACGCTCCGATACATATCCCACGGAGTCACCTAGTGCAG”, 23700 fluorescence intensity (a.u.). The same measure for “AACTCTATCGCTACGTGTATCACTGCGTGTCGAAGGATAACGGAGTCACCTAGTGCAG”: 4270 fluorescence intensity (a.u.); for “CGAGGTGAGGCGGAGGGGAGGCAGAGGGGTAGAGGAGGGTCGGAGTCACCTAGTGCAG”: 5260 fluorescence intensity (a.u.). The result for “GGTGTATATACATGTATTTTAGTCCCCAAACCTGAGATGACGGAGTCACCTAGTGCAG” reads 4120 fluorescence intensity (a.u.); that for “GGGAGAGTTAGTTAGTTGAGGTGGTTACGCGTCGGCGGCGCGGAGTCACCTAGTGCAG”, 5150 fluorescence intensity (a.u.).

As for “AAACACTCCCTAACCACCTGTTCCAAGCACTGGCACACCCCGGAGTCACCTAGTGCAG”, the binding signal is 3260 fluorescence intensity (a.u.).
